Data taken from patent US11066379B2 (THE TEXAS A&M UNIVERSITY SYSTEM, priority 2018, dated 2021).
Some results were stated once for a whole list of compounds, not compound by compound.

Test system: Interleukin-2 (IL-2) production in human T lymphocytes
Experiment: Interleukin-2 release in Con A-stimulated human T lymphocytes (ELISA)
Type: cell-based
Conditions: 2 h pre-treatment at non-toxic concentration, Con A 50 μg/mL 48 h
Protocol: Then, cells were stimulated with Concanavalin A (Con A) at 50 μg/mL for 48 h to induce IL-2 release. The amount of IL-2 released to the culture medium was evaluated using Human IL-2 ELISA kit. Experiments were carried out four times.

Substance	Inhibition of IL-2 production
(1S,3R,3aS,7aR)-5-((S)-1,3,3-trimethylcyclohexyl)-1,3,3a,4,7,7a-hexahydroisoben-zofuran-1,3-diyl diacetate [Compound 23a]	41-46%
(0R,3S,3aR,7aS)-6-((R)-1,3,3-trimethyl-cyclohexyl)-1,3,3a,4,5,7a-hexahydroisobenzofuran-1,3-diyl diacetate [Compound 23d]	41-46%
